The values that follow come from ChEMBL document CHEMBL4296182, “CO-ADD screening of NIH NCI Diversity Set V”.

The list shows a part of the results. Results with a measured potency or affinity are listed apart.

The experiment deals with Pseudomonas aeruginosa. The conditions noted are these: Concentration 20 uM; ASSAY_TEST Inhibition of Bacterial Growth; detection method Absorption (OD600); MEDIA CAMHB; plate type 384well; NBS; CORNING #3640; time 18 hr.
Regarding `c1ccc2c(c1)Sc1ccccc1N2CC1CN2CCC1CC2` (configuration not stated) [MEQUITAZINE], the Inhibition – broadly, the change of the read-out against control, counted positive when it falls – was 31.41%.
In the case of `CNC(=O)Oc1ccc(N(C)C)cc1C(C)C`, the Inhibition was determined as 19.58%.
`O=C1CC(c2ccc(O)cc2)Oc2cc(O)cc(O)c21` (configuration not stated): the Inhibition is given as -0.63%.
As to `COc1ccc2c3c1O[C@H]1C[C@@H](O)C=C[C@@]31CCN(C)C2` [GALANTAMINE], the Inhibition is -12.81%.
In the case of `C=C1C/C(=C/C)C(=O)O[C@@H]2CCN3CC=C(COC(=O)[C@]1(C)O)[C@H]23` [SENECIPHYLLINE], the Inhibition turned out to be 15.22%.
As for `CCCCOP(=O)(OCCCC)C1(C)CC(=O)CC(C)(C)C1` (configuration not stated), the Inhibition was 10.08%.
As for `CCN1CC2C3CCC(C)(O3)C2C1` (configuration not stated), the Inhibition was determined as 17.69%.
With `NC(=O)c1ccc(C(=O)Nc2ccc([As](=O)(O)O)cc2)cc1`, the Inhibition came to 28.48%.
As to `CC(=O)Nc1cccc([As](=O)(c2cccc(NC(C)=O)c2)c2cccc(NC(C)=O)c2)c1`, the Inhibition is -5.34%.
With `C[C@]12CC[C@@H]3c4ccc(OC(=O)N(CCCl)CCCl)cc4CC[C@H]3[C@@H]1CC[C@@H]2O` [ESTRAMUSTINE], the Inhibition is listed as -10.11%.
In the case of `CCC1CCC(C)N(N=O)C1` (configuration not stated), the Inhibition is recorded as 3.2%.
With `O=C1NC(=O)C(=Cc2csc3ccccc23)C(=O)N1` the figure was 3.3%; with `CN1CCc2cc3c(cc2C1)OCO3`, 14.65%.
Consider `O=C(O)CCCC[C@@H]1SC[C@@H]2NC(=O)N[C@@H]21` [BIOTIN], for which the Inhibition was 13%.
`SC1=NC2(CCCCC2)NC12CCCCC2`: the Inhibition came to 0.59%.
Consider `Cc1ccccc1NC(=O)Oc1cccc(OC(=O)c2ccccc2)c1`, for which the Inhibition came out at 22.67%.
`COc1c(OP2(=S)OCC(C)(C)CO2)cnn(C2CCCCC2)c1=O`: the Inhibition was 24.59%.
With `CC(=O)OC1CCC2(C)C(CCC3C2CC(=O)C2(C)C3CC(N3CC3)C2C(C)=O)C1` (configuration not stated) the figure was 16.41%; with `C(=C\c1ccncc1)/c1ccncc1`, 25.67%.
Take `O=P(Oc1ccccc1)(Oc1ccccc1)c1ccccc1`: the Inhibition was 0.83%.
Consider `C=CCCC1(C2=CCCCC2)C(=O)NC(=O)NC1=O`, for which the Inhibition was 14.38%.
As for `CC(C)OC1CCCC(O)C1CC(=O)O` (configuration not stated), the Inhibition is 0.35%.
Regarding `Cc1ccccc1-n1c(/C=C\c2ccccn2)nc2ccccc2c1=O`, the Inhibition was 28.69%.
Then `COc1ccc(C2=CC(c3ccc(OC)c(OC)c3)c3c(c4ccccc4oc3=O)O2)cc1OC` (configuration not stated), with 14.97%.
Take `O=S(=O)(F)c1ccc2nc(-c3cccc(Sc4ccccc4)c3)cc(Cl)c2c1`: the Inhibition came to 9.97%.
On to `OCC1CN1C1CCCCC1` (configuration not stated), for which the Inhibition is 8.57%.
With `COC(=O)c1nc(-c2ccc3c(n2)C(=O)C(N)=C(OC)C3=O)c(N)c(-c2ccc(OC)c(OC)c2O)c1C` the figure was 12.57%.
